Measurements from US20060094600A1, “Avermectins and avermectin monosaccharides substituted in the 4'-and 4"-position having pesticidal properties” (priority 2003, published 2006).
Some of these results come from one statement about several compounds together. For some of these results: At least one structure is not confirmed: it was looked up by name or label, or the drawing left a doubt.

Assays:
Type in all cases: in vivo
Diabrotica balteata = test: Activity against Diabrotica balteata (sprayed maize seedlings); conditions: 12.5 ppm of active compound, spray on maize seedlings, larvae of the second stage, 6 days
Tetranychus urticae = test: Activity against Tetranychus urticae (sprayed bean plants); conditions: 12.5 ppm of active compound, spray on young bean plants, mixed population, 25° C., 6 days
[1] = test system: Frankliniella occidentalis; test: Activity against Frankliniella occidentalis (sprayed bean leaf discs); conditions: 12.5 ppm of active compound, spray on bean leaf discs, mixed population, 10 days
Heliothis virescens = test: Activity against Heliothis virescens (eggs on filter paper); conditions: 12.5 ppm of active compound, 0.8 ml on filter paper, 0- to 24-hour-old eggs, 6 days
Plutella xylostella = test: Activity against Plutella xylostella caterpillars (sprayed cabbage plants); conditions: 12.5 ppm of active compound, spray on young cabbage plants, caterpillars of the first stage, 3 days
Spodoptera littoralis = test: Activity against Spodoptera littoralis (sprayed soya bean plants); conditions: 12.5 ppm of active compound, spray on young soya bean plants, caterpillars of the first stage, 3 days

Measured: reduction in the pest population

CCC(C)C1OC2(C=CC1C)CC1CC(CC=C(C)C(OC3CC(OC)C(OC4CC(OC)C(CCO)C(C)O4)C(C)O3)C(C)C=CC=C3COC4C(O)C(C)=CC(C(=O)O1)C34O)O2 [Compound 2.1, 4″-deoxy-4″-(S)-(2-hydroxy-ethyl)-avermectin B1]
more than 80%: all assays above

C=CCC1C(C)OC(OC2C(C)OC(OC3C(C)=CCC4CC(CC5(C=CC(C)C(C(C)CC)O5)O4)OC(=O)C4C=C(C)C(O)C5OCC(=CC=CC3C)C45O)CC2OC)CC1OC [Compound 5.1, 4″-deoxy-4″-(S)-allyl-avermectin B1]
not listed: [1]
more than 80%: all other assays above

C=CCC1C(C)OC(OC2C(C)=CCC3CC(CC4(C=CC(C)C(C(C)CC)O4)O3)OC(=O)C3C=C(C)C(O)C4OCC(=CC=CC2C)C34O)CC1OC [Compound 5.2, 4′-O-(S)-allyl-avermectin B1 monosaccharide]
not listed: [1]
more than 80%: all other assays above
